Some of the results follow. Further columns of the screen follow, without active or inactive calls. The list favours compounds with an active or inconclusive main result. Potencies come from curve fits of mixed quality, noted in brackets.

The assay is described as follows: qHTS Assay for Lipid Storage Modulators in Drosophila S3 Cells.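 As to cell number change: cells counted by Cell Tracker Red CMTPX staining in the red channel.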 The note with it: BODIPY lipid droplet fluorescence, 18-24 h; for cell number change: measured here: cell count max response, cells fed with added oleic acid. The method in brief:
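Drosophila S3 cells got compounds at several concentrations plus oleic acid (400 uM solution). Laser-scanning cytometry with 488 nm excitation read lipid droplets at 500-530 nm and cells at 575-640 nm. Percent activity was relative to 20 uM Triacsin C.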
On the technique in general: qHTS replaces the single test concentration by a dilution series.

[1] abbreviates: measured here: lipid fluorescence (Fed channel) AC50, cells fed with added oleic acid.
[2] abbreviates: measured here: cell number channel AC50, cells fed with added oleic acid.

As for `CCOc1cccc(-c2nnc3sc(COc4ccc(C)cc4)nn23)c1`, the cell number change amounted to 0.945%.
One may read the AC50 as the concentration at which the activity in the assay is half-maximal. High values mean activity only at high concentration, low ones activity at low concentration. For the compound `COc1ccc(NC2=NC(C)(CO)CS2)cc1` (configuration not stated), the cell number change was -13.4%. For the same compound, the AC50 under setting [1] is 0.206 µM [falling, full curve, poor fit].
On to `Cc1ccc(SCCNC(=O)c2ccc(C)c(S(=O)(=O)Nc3cccc(C)c3)c2)cc1`, for which the cell number change is -10.7%. Moreover, the AC50 under setting [2] is 0.0058 µM [falling, full curve, poor fit].
For the compound `CC1CCC(NC(=O)c2ccc3nc[nH]c3c2)CC1` (configuration not stated), the cell number change worked out at 16.8%. For the same compound, the AC50 under setting [1] is 6.51 µM [falling, single point].
`CC(C)CNC(=O)[C@H](Cc1ccccc1)NC(=O)c1cccs1`: the cell number change is -2.86%. Moreover, the AC50 under setting [1] was 6.51 µM [rising, partial curve].
Take `Cc1ccc(CCN2C(=O)c3ccccc3C2C(=O)NCc2cccnc2)cc1` (configuration not stated): the cell number change is 23.2%.
Turning to `O=C(COC(=O)/C(=C/c1cccs1)c1cccs1)NC(c1ccccc1)c1ccccc1`, the AC50 under setting [1] was 29.1 µM [falling, single point].
As to `COC(=O)c1ccc(C2/C(=C(/O)c3ccc4c(c3)CC(C)O4)C(=O)C(=O)N2Cc2cccnc2)cc1` (configuration not stated), the cell number change came to 4.89%.
In the case of `CC(C)(Cc1cccc(CC(C)(C)C(=O)O)c1)C(=O)O`, the cell number change is 18.1%. Further, the AC50 under setting [1] is 6.51 µM [rising, single point].
Regarding `c1ccc(C2=Nn3c(nnc3-c3cccnc3)SC2)cc1`, the cell number change was -11.3%. Further, the AC50 under setting [1] is 18.4 µM [falling, single point].
Take `CN(CC(=O)Nc1ccc(F)cc1)CC(=O)N1CCc2ccccc21`: the cell number change was -1.61%.
For the compound `COc1ccccc1N1CCN(Cc2ccc(C(=O)O)cc2)CC1`, the cell number change is 25%. Also, the AC50 under setting [1] is 1.16 µM [falling, full curve].
For `O=C(O)CC/C(=N\NC(=O)c1ccccc1)c1cccs1`, the cell number change was -17.6%. Also, the AC50 under setting [2] was 6.51 µM [falling, single point]. Moreover, the half-maximal activity concentration (AC50) under setting [1] was 18.4 µM [falling, single point].
In the case of `CCC/C(=N\NC(=O)c1cccc(C)c1)c1ccccc1`, the cell number change was determined as 39.3%. Moreover, the AC50 under setting [2] is 29.1 µM [rising, single point].
Take `CN(CC(=O)Nc1cccc(F)c1)C(=O)c1ccccc1OCC(=O)Nc1cccc(C(F)(F)F)c1`: the cell number change worked out at 49.5%. The AC50 under setting [2] is 1.64 µM [rising, full curve].
As for `Nc1nnc(SCc2ccc3c(c2)OCO3)s1`, the cell number change was -7.59%.
Turning to `Cc1ccc(Oc2nc3c(c(=O)n(C)c(=O)n3C)n2C)cc1C`, under setting [1], the AC50 was 29.1 µM [falling, partial curve, poor fit].
Regarding `FC(F)(F)c1cccc(NC(=S)NCc2ccccn2)c1`, the cell number change was 2.35%. Also, the concentration at half-maximal activity (AC50) under setting [1] is 6.51 µM [rising, single point].
Regarding `COc1cc(/C=C(\C#N)C(N)=O)ccc1OS(=O)(=O)c1ccc(C)cc1`, the cell number change was -21.3%. In addition, the AC50 under setting [2] was 0.651 µM [falling, full curve, poor fit]. The AC50 under setting [1] was 16.4 µM [rising, partial curve].
For the compound `Cn1nc(-c2ccccc2)cc1NS(=O)(=O)c1ccc(C#N)cc1`, the cell number change worked out at 24.4%. Moreover, the AC50 under setting [1] was 29.1 µM [rising, single point].
On to `CCOc1ccc(S(=O)(=O)N2CCC(C(=O)N3CCN(c4ccccc4F)CC3)CC2)cc1C`, for which the cell number change was 29.7%.
With `COc1ccc(C2(CNC(=O)c3ccc(C)cc3)CCOCC2)cc1`, the cell number change is 149%.
With `COc1ccc(CSc2nnc(SCc3ccc([N+](=O)[O-])cc3)s2)cc1`, the cell number change was determined as 33.2%. Moreover, the AC50 under setting [2] is 20.6 µM [rising, single point].
`CCOC(=O)c1c(C)[nH]c(C(=O)CN2C(=O)NC(C)(c3ccc(C)cc3)C2=O)c1C` (configuration not stated): the AC50 under setting [2] was 0.731 µM [rising, partial curve, poor fit] and the AC50 under setting [1] is 32.6 µM [falling, single point].
Take `CC1CCN(C(=O)c2ccc(NS(=O)(=O)c3ccc4[nH]c(=O)[nH]c4c3)cc2)CC1`: the cell number change is 0.226%. The AC50 under setting [1] was 8.2 µM [falling, partial curve].
As for `Cc1cccc(NC(=O)N2CCC(c3nc4ccccc4o3)CC2)c1`, the cell number change is 91.9%. In addition, the AC50 under setting [2] is 2.31 µM [rising, full curve]. Besides, under setting [1], the AC50 is 2.31 µM [rising, full curve].
Consider `Cc1cc2c(=O)n(C)c(SCC(=O)Nc3cccc(F)c3)nc2s1`, for which the cell number change was determined as 10.5%. The AC50 under setting [1] was 29.1 µM [rising, single point].
Take `Cc1oc(-c2ccccc2)nc1C(=O)OCC(=O)NCc1ccccc1`: the cell number change was 13%. Further, the AC50 under setting [1] was 5.8 µM [rising, full curve, poor fit].
`c1cn(CCCNC2=NCCCCC2)cn1`: the cell number change is -46.7%. Further, under setting [2], the concentration at half-maximal activity (AC50) was 29.1 µM [falling, single point]. In addition, the AC50 under setting [1] is 29.1 µM [falling, partial curve].
In the case of `COc1ccc(N2CCN(C(=O)c3ccccc3Br)CC2)c([N+](=O)[O-])c1`, the cell number change is -0.339%.
As for `O=Cc1c[nH]c2ccc(C(=O)c3ccccc3)cc12`, the cell number change stood at 18.2%. Moreover, the AC50 under setting [1] is 0.231 µM [rising, full curve, poor fit].
For the compound `COc1ccccc1NC(=O)c1ccc(CSc2ccccc2)o1`, the cell number change was -2.31%. The AC50 under setting [1] is 16.4 µM [falling, single point].
With `Cn1c(=O)c(Sc2ccccc2)c(O)c2ccccc21`, the cell number change was found to be 20.9%. For the same compound, under setting [1], the AC50 is 20.6 µM [rising, partial curve, poor fit].
For `CCc1cccc2sc(N3CCN(C(=O)c4ccc([N+](=O)[O-])o4)CC3)nc12`, the AC50 under setting [1] is 1.64 µM [falling, partial curve].
With `CCOC(=O)N1CCN(Cc2nc3c(c(=O)n(C)c(=O)n3C)n2Cc2cccc3ccccc23)CC1`, the cell number change is -3.16%. In addition, the AC50 under setting [1] is 0.259 µM [rising, full curve, poor fit].
Turning to `O=C(c1ccc(Cl)c(S(=O)(=O)N2CCCCC2)c1)N1CCN(c2ccccc2)CC1`, the cell number change was 0.348%. For the same compound, the AC50 under setting [1] was 7.31 µM [falling, single point].
As for `O=C(c1cc2cc(F)ccc2[nH]1)N1CCN(C(=O)c2ccco2)CC1`, the cell number change was -2.09%.
Take `O=Cc1cc([N+](=O)[O-])ccc1N1CCN(Cc2ccc3c(c2)OCO3)CC1`: the cell number change is 21.1%. Further, under setting [2], the AC50 is 0.0366 µM [rising, full curve, poor fit]. The AC50 under setting [1] was 6.51 µM [rising, single point].
Turning to `CN(C)S(=O)(=O)c1ccc(N2CCCC2)c(C(=O)Nc2nc3c(ccc4ccccc43)s2)c1`, the cell number change amounted to 22.2%. The AC50 under setting [1] is 29.1 µM [rising, single point].
With `CC(NS(=O)(=O)c1cccc(S(=O)(=O)c2ccccc2)c1)C(=O)O` (configuration not stated), the cell number change was -9.77%. The AC50 under setting [1] was 0.82 µM [falling, full curve, poor fit].
For the compound `O=C(c1cc2ccccc2oc1=O)N(c1ccc(Cl)cc1)C1C=CS(=O)(=O)C1` (configuration not stated), the cell number change is 3.51%. Further, the AC50 under setting [2] was 5.8 µM [falling, single point]. For the same compound, the AC50 under setting [1] was 0.231 µM [falling, full curve, poor fit].
As to `COc1ccc(Cl)c2sc(N3CCN(C(=O)C4=COCCO4)CC3)nc12`, the cell number change is -13.2%. Under setting [1], the AC50 is 25.9 µM [rising, single point].
`COc1cccc(CNC(=O)CCS(=O)(=O)c2ccc3c(c2)oc(=O)n3C)c1`: the cell number change turned out to be 21%. For the same compound, the AC50 under setting [1] is 29.1 µM [rising, partial curve, poor fit].
Regarding `CN(C)CCN1C(=O)c2oc3ccc(Cl)cc3c(=O)c2C1c1cccc(Br)c1` (configuration not stated), the half-maximal activity concentration (AC50) under setting [2] is 6.51 µM [rising, single point].
For the compound `Cc1cc(C(F)(F)F)c2c(N)c(C(=O)Nc3cc(C)on3)sc2n1`, the cell number change was 57.4%. The AC50 under setting [2] was 0.058 µM [rising, full curve, poor fit]. For the same compound, the AC50 under setting [1] was 0.731 µM [rising, partial curve].
With `CC(C)=CC(=O)N1CCCC(N2CCN(c3ccccc3C)CC2)C1` (configuration not stated), the cell number change amounted to 34.8%. Under setting [2], the AC50 was 29.1 µM [rising, single point]. Moreover, the AC50 under setting [1] is 0.58 µM [rising, single point].
Take `Cc1cccc(C(=O)OCC(=O)NN2C(=O)NC3(CCC(C)CC3)C2=O)c1O` (configuration not stated): the cell number change is -17.7%. For the same compound, under setting [1], the AC50 was 6.51 µM [falling, single point].
Take `CCCCN(CCO)CCCC`: the cell number change turned out to be 7.23%. Moreover, the AC50 under setting [2] was 0.651 µM [rising, partial curve].
As for `O=C(CCCOc1ccccc1)Nc1ncccn1`, the cell number change was found to be 32.7%. Under setting [2], the AC50 is 29.1 µM [rising, single point].
As for `COC(=O)C1C(C(C)C)N(c2ccccc2)OC1(C)O` (configuration not stated), the cell number change is 1.26%.
In the case of `COc1ccc([C@H]2CC(=O)C=C(c3cccc(CO)c3)C2)cc1OC`, the cell number change is -31.4%. In addition, under setting [2], the AC50 was 11.6 µM [falling, partial curve, poor fit].
In the case of `O=C(NCCCN1CCOCC1)c1ccc(NS(=O)(=O)c2cccc([N+](=O)[O-])c2)cc1`, the cell number change is -4.42%.
On to `O=C(NCCc1ccccc1)C1CCN(C(=O)c2ccc([N+](=O)[O-])cc2)CC1`, for which the cell number change amounted to 17.1%. In addition, the AC50 under setting [1] was 1.64 µM [falling, partial curve].
Consider `O=C(c1ccco1)N1CCCC(c2nc3c(nnn3Cc3ccc(F)cc3)c(=O)[nH]2)C1` (configuration not stated), for which the cell number change came out at 8.7%.
For the compound `CCCCC(=O)Nc1cccc(NC(=O)c2cccc([N+](=O)[O-])c2)c1`, the cell number change turned out to be 29.9%. Under setting [2], the AC50 was 0.103 µM [rising, full curve]. The half-maximal activity concentration (AC50) under setting [1] is 0.206 µM [rising, full curve, poor fit].
For the compound `COc1ccc(CNc2nc3nc(C)cc(C)n3n2)cc1OC`, the AC50 under setting [2] is 0.291 µM [rising, partial curve, poor fit].
Take `COCCOc1ccc(C(F)(F)F)cc1NC(=O)COC(=O)c1cc[n+]([O-])cc1`: the AC50 under setting [2] was 2.06 µM [rising, partial curve].
On to `Fc1ccc(Nc2ccc3ccccc3n2)c(F)c1`, for which the cell number change was 1.9%. The AC50 under setting [1] was 29.1 µM [falling, single point].
On to `CC(Oc1ccc(F)cc1)C(=O)Nc1sc2c(c1C(=O)NCc1cccnc1)CCCC2` (configuration not stated), for which the concentration at half-maximal activity (AC50) under setting [1] is 29.1 µM [falling, partial curve, poor fit].
For `CCCNC(=O)CN1C(=O)NC(CC)(c2ccc(F)cc2)C1=O` (configuration not stated), the cell number change is -4.5%. Also, the AC50 under setting [1] was 0.58 µM [rising, single point].
Take `CCOC(=O)N1CCN(C(=O)C(=O)c2cn(CC(=O)N3CCCCCC3)c3ccccc23)CC1`: the cell number change came out at 7.35%. Moreover, the half-maximal activity concentration (AC50) under setting [1] was 29.1 µM [falling, partial curve, poor fit].

(Values after PubChem BioAssay AID2685 (National Center for Advancing Translational Sciences (NCATS), 2010).)
